Test results: PMC12678314
No constants are given. Whether binding was seen depends on the method and setting. In cells and extracts the contact can be indirect. Binding can be weak; no strength is given. Tags and fused reporters may be left off the sequences shown.

Experiments:
[1] = biological target: T1, recombinant His-tagged NADPH-dependent thioredoxin reductase (NTRC) (Arabidopsis) (UniProt O22229); test: pull-down; 50 µg purified His-tagged bait incubated overnight at 4°C with chloroplast extracts (100 µg Chl, 1% dodecyl maltoside) in 25 mM Tris-HCl pH 7.8, 150 mM NaCl, 5 mM MgCl2, 10% glycerol; Ni-NTA agarose; six washes with 10 mM imidazole; eluted with 200 mM imidazole; immunoblot; only the target purified
T1 sequence: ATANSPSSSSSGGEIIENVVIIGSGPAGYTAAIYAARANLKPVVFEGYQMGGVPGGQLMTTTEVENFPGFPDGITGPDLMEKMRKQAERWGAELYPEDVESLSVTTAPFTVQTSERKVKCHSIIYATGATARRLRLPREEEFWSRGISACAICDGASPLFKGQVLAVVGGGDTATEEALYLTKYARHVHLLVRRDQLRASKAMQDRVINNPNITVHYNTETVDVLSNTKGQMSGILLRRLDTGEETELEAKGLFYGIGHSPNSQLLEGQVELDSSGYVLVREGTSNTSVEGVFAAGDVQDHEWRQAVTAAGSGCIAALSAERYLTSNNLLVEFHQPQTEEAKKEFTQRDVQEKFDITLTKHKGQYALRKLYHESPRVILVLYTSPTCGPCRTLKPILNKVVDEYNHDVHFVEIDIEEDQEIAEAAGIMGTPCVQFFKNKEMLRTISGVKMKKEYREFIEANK

[2] = biological target: T2, recombinant His-tagged thioredoxin f1 (Arabidopsis) (UniProt Q9XFH8); test: as above
T2 sequence: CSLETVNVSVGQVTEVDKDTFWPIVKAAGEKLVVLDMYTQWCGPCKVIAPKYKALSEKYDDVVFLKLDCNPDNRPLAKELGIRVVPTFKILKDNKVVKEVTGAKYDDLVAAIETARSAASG

[3] = biological target: T3, Arabidopsis NADPH-dependent thioredoxin reductase (NTRC) fused to a half of YFP (BiFC) (Arabidopsis) (UniProt O22229); test: split reporter; halves of YFP (pVyNE, pVyCE) fused to the proteins, co-expressed in N. benthamiana leaves by Agrobacterium infiltration; confocal microscopy after 2 days in the dark
T3 sequence: T1 sequence

[4] = biological target: T4, Arabidopsis thioredoxin f1 fused to a half of YFP (BiFC) (Arabidopsis) (UniProt Q9XFH8); test: as above
T4 sequence: T2 sequence

[5] = biological target: T5, thioredoxin m1 fused to a half of YFP (BiFC) (Arabidopsis) (UniProt O48737); test: as above
T5 sequence: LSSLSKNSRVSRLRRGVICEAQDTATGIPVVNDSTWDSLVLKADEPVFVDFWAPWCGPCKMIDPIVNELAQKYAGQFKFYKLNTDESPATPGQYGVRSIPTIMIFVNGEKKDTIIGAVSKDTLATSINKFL

[6] = biological target: T6, recombinant His-tagged thioredoxin m1 (Arabidopsis) (UniProt O48737); test: pull-down; 50 µg purified His-tagged bait incubated overnight at 4°C with chloroplast extracts (100 µg Chl, 1% dodecyl maltoside) in 25 mM Tris-HCl pH 7.8, 150 mM NaCl, 5 mM MgCl2, 10% glycerol; Ni-NTA agarose; six washes with 10 mM imidazole; eluted with 200 mM imidazole; immunoblot; only the target purified
T6 sequence: T5 sequence

Substance | binding [1] | binding [2] | binding [3] | binding [4] | binding [5] | binding [6]
5-aminolevulinic acid dehydratase (ALAD), endogenous (enzyme) | binds | binds | – | – | – | –
Arabidopsis GSAAT fused to a half of YFP (BiFC) (enzyme) | – | – | binds | binds | binds | –
glutamate-1-semialdehyde aminotransferase (GSAAT), endogenous (enzyme) | binds | binds | – | – | – | binds
light-harvesting chlorophyll a/b binding protein 1 of photosystem II (LHCB1), endogenous | – | no binding | – | – | – | no binding
